Data published in PubChem BioAssay AID1671190 (National Center for Advancing Translational Sciences (NCATS), 2021).
Screen size: about 580,000 compounds; about 6,100 (1.1%) were called active. The inconclusive results got no clear call from the source; some entries with a clear call stand among them for comparison. The call rests on the fitted dose curve; in most records, active means well fitted inhibition curve with a large enough effect; inconclusive means small, poorly fitted or top-dose-only effect, or another doubt; inactive means no such curve, though single readings can be large or run the other way. Where the call is inconclusive, the potency comes from a doubtful curve fit.

The chains behind the UniProt entries cited, without tags or fusion partners.
UniProt P18054, whole entry, looked up: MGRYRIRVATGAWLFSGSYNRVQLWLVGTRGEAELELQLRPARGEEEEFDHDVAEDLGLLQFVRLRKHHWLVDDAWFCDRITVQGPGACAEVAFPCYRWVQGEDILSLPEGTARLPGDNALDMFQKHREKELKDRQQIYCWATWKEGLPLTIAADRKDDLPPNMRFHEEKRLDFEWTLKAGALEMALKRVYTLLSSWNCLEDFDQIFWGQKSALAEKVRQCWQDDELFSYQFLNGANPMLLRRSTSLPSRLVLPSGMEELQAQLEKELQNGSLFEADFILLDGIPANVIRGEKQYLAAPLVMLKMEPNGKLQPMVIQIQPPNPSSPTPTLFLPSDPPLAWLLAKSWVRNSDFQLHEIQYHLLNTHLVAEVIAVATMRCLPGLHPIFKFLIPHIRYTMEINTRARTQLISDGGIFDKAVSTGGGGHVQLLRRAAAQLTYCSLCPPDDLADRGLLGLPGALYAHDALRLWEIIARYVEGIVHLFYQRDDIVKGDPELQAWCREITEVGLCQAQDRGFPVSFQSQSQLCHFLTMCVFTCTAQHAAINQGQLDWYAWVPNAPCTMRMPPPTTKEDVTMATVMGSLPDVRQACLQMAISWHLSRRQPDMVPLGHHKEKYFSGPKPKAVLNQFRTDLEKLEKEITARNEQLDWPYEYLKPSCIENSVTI

These compounds were tested against Polyunsaturated fatty acid lipoxygenase ALOX12 (Homo sapiens) (UniProt P18054) (assay: Primary qHTS assay for inhibitors of human arachidonate 12S-lipoxygenase (ALOX12): Round 2). Conditions: purified 12hLO, xylenol orange hydroperoxide absorbance; series mostly up to 108 µM.
Method in brief: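 Purified human 12hLO (150 nM final) in 25 mM Hepes, 0.01% Triton X-100, pH 7.0 was preincubated 15 min at room temperature with compound. Then 40 uM arachidonic acid was added, 30 min. Hydroperoxide was read by Fe-XO absorbance ratio 573/405 nm.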
Potency means the concentration at half of the fitted maximal effect.

SMILES	Potency
COc1cccc(C(C)NC(=O)Nc2ccccc2Cl)c1 (centres undefined)	inconclusive: 89.1 µM [inhibitor, single point]
NC1=NC(=O)/C(=C/c2ccc(OCC(=O)O)cc2)S1	inconclusive: 56.2 µM [inhibitor, partial curve, poor fit]
Clc1ccccc1C1(c2ccnc(NCCc3ccccn3)n2)CCNCC1	inconclusive: 15.8 µM [inhibitor, full curve]
CCCNC(=O)NC[C@@H]1C=C(C)[C@H](Cc2nc3ccccc3[nH]2)C[C@H]1C(C)C	inconclusive: 56.2 µM [inhibitor, partial curve]
CN(C)C(=O)c1cc(=O)[nH]c2ccc(S(=O)(=O)Nc3ccc(F)cc3)cc12	inconclusive: 158 µM [inhibitor, single point]
CCOC(=O)c1cccn1C1C(=O)N(Cc2ccc(Cl)nc2)c2c(F)cccc21 (centres undefined)	active: 56.2 µM
CCCCCCCCCCCNC(=O)c1ccoc1C	inconclusive: 25.1 µM [inhibitor, partial curve]
Cc1cccc(OCCCn2c(CCNC(=O)C(C)(C)C)nc3ccccc32)c1	inconclusive: 11.2 µM [inhibitor, full curve, poor fit]
C/C(=N\Nc1cccc(Cl)c1)c1ccncc1	active: 17.8 µM
CCCN1CCc2nc(N3CCN(c4ncccn4)CC3)ncc2C1	inconclusive: 79.4 µM [inhibitor, partial curve, poor fit]
COC(=O)c1c(NC(=O)Cn2nc(C(F)F)cc2C(F)F)sc(C)c1C	inconclusive: 31.6 µM [inhibitor, partial curve, poor fit]
O=C(NCCCn1ccnc1)/C(=C\c1ccc(Br)cc1)NC(=O)c1ccccc1F	inconclusive: 100 µM [inhibitor, partial curve, poor fit]
COC(=O)C1=C(C)N(C)C(=NCC2CC2)NC1c1ccccc1 (centres undefined)	inconclusive: 39.8 µM [inhibitor, partial curve, poor fit]
Cn1ncc(N=Cc2ccccc2)c1C(=O)Nc1cccc(Cl)c1	inconclusive: 0.562 µM [inhibitor, full curve, poor fit]
COC(=O)CCC(=O)OC1(C)C(=O)C2=CN(Cc3ccc(OC)cc3)C(c3ccc(OC)cc3)=CC2=C(Br)C1=O (centres undefined)	inconclusive: 44.7 µM [inhibitor, partial curve, poor fit]
N#Cc1ccsc1NC(=O)C1CCN(C(=O)c2ccc(Cl)cc2)CC1	inconclusive: 89.1 µM [inhibitor, partial curve, poor fit]
FC(F)(F)c1ccc(N2CCN(c3ncnc4c3nnn4Cc3ccccc3)CC2)nc1	inactive
Oc1ccc(C(=S)N2CCCCC2)cc1	inconclusive: 100 µM [inhibitor, single point]
CCn1c(SCC(=O)NC2=NCCS2)nnc1C(C)NC(=O)c1ccccc1F (centres undefined)	inconclusive: 31.6 µM [inhibitor, full curve, poor fit]
Cc1ccccc1-c1cccc(CN2CCOC(CCN)C2)c1 (centres undefined)	inconclusive: 6.31 µM [inhibitor, full curve, poor fit]
Cc1nc(SC(C)c2ccc(F)c(F)c2)sc1CC(N)=O (centres undefined)	inactive
COc1ccc(S(=O)(=O)Nc2cc3c(cc2NCc2ccccc2)n(C)c(=O)n3C)cc1	inactive

SMILES	Potency
CCOC(=O)CN1C(=O)S/C(=C\c2ccc(-c3ccc(C(=O)O)c(Cl)c3)o2)C1=O	inconclusive: 2.82 µM [inhibitor, full curve, poor fit]
COc1ccc(C(=O)C(C)[n+]2ccc(C)c3ccccc32)cc1[N+](=O)[O-] (centres undefined)	inconclusive: 89.1 µM [inhibitor, partial curve, poor fit]
O=C(NCc1cccnc1)c1ccc2c(c1)C(=O)N(Cc1ccccc1)C2=O	inactive
Cc1c(C(=O)NCc2ccccc2Cl)sc2nc[nH]c(=O)c12	inactive
COc1ccc(NC(=O)COc2ccc3c(c2)CCC3)cc1S(N)(=O)=O	inconclusive: 112 µM [inhibitor, single point]
Cc1nccn1CCc1nc2cc(NC(=O)CC(C)C)ccc2n1C	inactive
CCOC(=O)c1cccc(C(=O)OCC)n1	inactive
S=C(NCc1ccco1)Nc1ccc(Br)cn1	inconclusive: 44.7 µM [inhibitor, partial curve, poor fit]
O=C(Nc1ccc([N+](=O)[O-])cc1)c1cc(-c2ccccn2)nc2c(Cl)cccc12	inconclusive: 100 µM [inhibitor, partial curve, poor fit]
Cc1nc2ccccc2c(=O)n1Cc1ccco1	inactive
COc1ccc(Oc2nc(-c3ccccn3)ncc2OC)cc1	inconclusive: 0.251 µM [inhibitor, full curve, poor fit]
C[C@@H]1CCCCO[C@H](CN(C)C(=O)Nc2ccc(C(F)(F)F)cc2)[C@@H](C)CN([C@H](C)CO)C(=O)c2cc(NC(=O)c3ccncc3)ccc2O1	inconclusive: 35.5 µM [inhibitor, partial curve, poor fit]
C[C@]12C=CC(=O)C=C1CC[C@@H]1[C@@H]2[C@@H](O)C[C@@]2(C)[C@H]1CC[C@]2(O)C(=O)COC(=O)CCC(=O)NCCc1ccc(O)cc1	inactive
O=C(N/N=C/c1ccccc1)C(O)c1ccccc1 (centres undefined)	inconclusive: 28.2 µM [inhibitor, partial curve, poor fit]
O=C(Nc1ccc(Br)cc1)c1ccccc1Br	inconclusive: 56.2 µM [inhibitor, partial curve, poor fit]
CN1CCN(C(=O)C2=C[C@@H](c3ccccc3)C[C@@H](OCCCCO)O2)CC1	inactive
COc1ccc(CNc2nc(SCC(=O)NCc3ccco3)nc3ccccc23)cc1	inactive
COCCNCC(=O)Nc1ccc(C)c(S(=O)(=O)N2CCCCC2)c1	inconclusive: 1.26 µM [inhibitor, partial curve, poor fit]
CCCN1C(=O)C2(C(=C(O)c3ccc(OCC)cc3)C(=O)C(=O)N2CCOC)c2ccccc21 (centres undefined)	inconclusive: 3.16 µM [inhibitor, full curve, poor fit]
Cc1cn2nc(C(=O)NC3CCCC3)cc2c(N2CCCC2)n1	inconclusive: 11.2 µM [inhibitor, partial curve]
CCS(=O)(=O)N1C[C@@H](C(=O)N2CCCCCC2)[C@H](c2ccncc2)C1	inactive
COc1ccc(S(=O)(=O)N(C)c2ccc(OCC(=O)Nc3cc(C)on3)cc2)cc1	inconclusive: 89.1 µM [inhibitor, partial curve, poor fit]

Individual results from the list.
Under Potency, CCOC(=O)CN1C(=O)S/C(=C\c2ccc(-c3ccc(C(=O)O)c(Cl)c3)o2)C1=O reads inconclusive: 2.82 µM [inhibitor, full curve, poor fit]
Under Potency, O=C(Nc1ccc(Br)cc1)c1ccccc1Br reads inconclusive: 56.2 µM [inhibitor, partial curve, poor fit]

(continued)

SMILES	Potency
CN(C)c1ccc(C(=O)/C=C/c2ccco2)cc1	inconclusive: 44.7 µM [inhibitor, partial curve]
CCCC(=O)Nc1ccc(NC(=O)c2ccco2)c(OC)c1	inactive
Cc1nn(CC(=O)Nc2ccc(S(=O)(=O)N(C)C)cc2)c(C)c1[N+](=O)[O-]	inconclusive: 15.8 µM [inhibitor, partial curve, poor fit]
CC(C)(C)c1ccc(C(=O)N2CCC(=O)N([C@H](COCc3ccccc3)Cc3ccccc3)CC2)cc1	inconclusive: 50.1 µM [inhibitor, partial curve, poor fit]
Cc1cccc(Nc2ncnc3c2cnn3Cc2ccccc2)c1	inconclusive: 44.7 µM [inhibitor, partial curve]
Cc1ccc(N(C(=O)CCl)C(C(=O)NC2CCCCC2)c2cccnc2)cc1C (centres undefined)	inconclusive: 44.7 µM [inhibitor, partial curve, poor fit]
Cc1ccc(-c2nc3ccccc3n2Cc2cccc(F)c2)o1	inconclusive: 31.6 µM [inhibitor, partial curve, poor fit]
Cc1cc(C)c(OCC(=O)N(Cc2cccc(F)c2)Cc2ccco2)c(C)c1	inconclusive: 112 µM [inhibitor, partial curve, poor fit]
Cn1nnc(NC(=S)NC(=O)c2ccccc2)n1	inconclusive: 0.251 µM [inhibitor, full curve, poor fit]
CSc1ncc(Cl)c(C(=O)Nc2cccc(C)c2)n1	inactive
CCOC(=O)c1ccc(N2C(=O)c3n[nH]c(C)c3C2c2ccc(O)cc2)cc1 (centres undefined)	inconclusive: 79.4 µM [inhibitor, single point]
Cc1ccc(-n2ncc3c2NC(=O)CC32C(=O)N(CC(N)=O)c3ccccc32)cc1C (centres undefined)	inconclusive: 31.6 µM [inhibitor, partial curve, poor fit]
CCc1ccc(/C=C2\CCc3ccccc3C2=O)cc1	inactive
CCCCc1ccc(-c2csc(/C(C#N)=C/c3ccc(C)o3)n2)cc1	inconclusive: 39.8 µM [inhibitor, partial curve, poor fit]
CC1=C(C(=O)Nc2ccccc2F)C(c2ccco2)C(C#N)=C(SCC(=O)NC(C)(C)C)N1 (centres undefined)	inconclusive: 44.7 µM [inhibitor, partial curve, poor fit]
Cc1oc(-c2ccccc2)nc1C(=O)OCC(=O)N1CCCCC1	inconclusive: 79.4 µM [inhibitor, partial curve, poor fit]
CCOC(=O)c1ccc(NS(=O)(=O)c2ccc3[nH]c4c(c3c2)CCCCC4)cc1	inconclusive: 50.1 µM [inhibitor, full curve, poor fit]
CC(=O)c1cccc(NC(=O)c2cccc3ncccc23)c1	inconclusive: 56.2 µM [inhibitor, partial curve, poor fit]
Cn1nnnc1SCCCNCc1cccc(OCc2ccccc2Cl)c1	inactive
CCC(=O)Nc1ccc(NC(=S)NC(=O)c2cc3ccccc3o2)cc1	inconclusive: 141 µM [inhibitor, partial curve, poor fit]
